From paper PMC10611921
For at least one entry, the source does not settle the construct or the ends of the probe. Weaker means in comparison with the reference protein, sequence or condition of that experiment.

Chains of the proteins cited; added tags and fusions are not shown.
UniProt P25490, whole entry: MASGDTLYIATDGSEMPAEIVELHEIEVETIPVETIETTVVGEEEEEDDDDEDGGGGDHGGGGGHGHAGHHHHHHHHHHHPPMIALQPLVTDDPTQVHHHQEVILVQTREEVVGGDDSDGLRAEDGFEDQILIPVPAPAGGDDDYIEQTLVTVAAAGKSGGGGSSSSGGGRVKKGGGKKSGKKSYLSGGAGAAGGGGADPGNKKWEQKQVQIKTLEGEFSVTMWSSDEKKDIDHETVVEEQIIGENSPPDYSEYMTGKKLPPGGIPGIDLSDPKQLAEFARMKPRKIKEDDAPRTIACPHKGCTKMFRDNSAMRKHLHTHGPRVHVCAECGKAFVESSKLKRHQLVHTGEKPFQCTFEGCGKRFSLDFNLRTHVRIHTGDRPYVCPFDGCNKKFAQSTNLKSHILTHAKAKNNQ

Biological target: YY1 (UniProt P25490)
Test: EMSA
Conditions: faint non-specific band of large oligomers, lost as FOXP2 FHD rises, no complex on the small control gel (Figure 9B); EMSA: 0.5 uM DNA, 20% (v/v) of binding buffer (10 mM HEPES pH 7.5, 1 mM MgCl2, 100 mM KCl, 10% glycerol, 0.1 mg/ml BSA), protein from 100 mM NaCl, overnight at 4 C; recombinant protein; protein details: N-terminal His6

## TTTGATTGTTTACTTTGTTC (double strand) [CNTNAP2 DNA]
  binding result: binds more weakly
